Some of these results come from one statement about several compounds together.
Tested on: Differentiated human adipocytes
Assay: Lipolysis assay (glycerol release) in cultured adipocytes
Type: cell-based
Conditions: any dose of caffeine, albuterol or combination except caffeine 10 μg/mL; 3 hours incubation; p<0.01; n=8
Method: Primary human adipose tissue was obtained from patients undergoing liposuction, paniculectomy, or bariatric surgery. Tissue was processed by […]) to isolate and cryopreserve pre-adipocytes. At the time of the assay, pre-adipocytes were differentiated into adipocytes. Differentiated human adipocytes adherent to the bottom of a 96-well plate were washed and treated with media containing one of ten treatments: […] After incubation, a 50 μL aliquot was removed and combined with 50 μL glycerol reagent, in a colorimetric assay based on the amount of glycerol released during incubation with test compounds. Absorbance was measured at 540 nm, and results were calibrated against a standard curve. Eight replicates were conducted for each treatment.

Row | SMILES | increase in lipolysis over buffer-treated cells
1 | CC(C)(C)NCC(O)c1ccc(O)c(CO)c1 (centres unmarked) [albuterol, albuterol (salbutamol)] | 30-40%
2 | Cn1c(=O)c2c(ncn2C)n(C)c1=O [caffeine] | 30-40%

— patent US20180055848A1 (Board of Supervisors of Louisiana State University and …, priority 2015, published 2018)
